# Measured values taken from article PMC8035766.
# Chains of the proteins cited; added tags and fusions are not shown.
# UniProt Q14694: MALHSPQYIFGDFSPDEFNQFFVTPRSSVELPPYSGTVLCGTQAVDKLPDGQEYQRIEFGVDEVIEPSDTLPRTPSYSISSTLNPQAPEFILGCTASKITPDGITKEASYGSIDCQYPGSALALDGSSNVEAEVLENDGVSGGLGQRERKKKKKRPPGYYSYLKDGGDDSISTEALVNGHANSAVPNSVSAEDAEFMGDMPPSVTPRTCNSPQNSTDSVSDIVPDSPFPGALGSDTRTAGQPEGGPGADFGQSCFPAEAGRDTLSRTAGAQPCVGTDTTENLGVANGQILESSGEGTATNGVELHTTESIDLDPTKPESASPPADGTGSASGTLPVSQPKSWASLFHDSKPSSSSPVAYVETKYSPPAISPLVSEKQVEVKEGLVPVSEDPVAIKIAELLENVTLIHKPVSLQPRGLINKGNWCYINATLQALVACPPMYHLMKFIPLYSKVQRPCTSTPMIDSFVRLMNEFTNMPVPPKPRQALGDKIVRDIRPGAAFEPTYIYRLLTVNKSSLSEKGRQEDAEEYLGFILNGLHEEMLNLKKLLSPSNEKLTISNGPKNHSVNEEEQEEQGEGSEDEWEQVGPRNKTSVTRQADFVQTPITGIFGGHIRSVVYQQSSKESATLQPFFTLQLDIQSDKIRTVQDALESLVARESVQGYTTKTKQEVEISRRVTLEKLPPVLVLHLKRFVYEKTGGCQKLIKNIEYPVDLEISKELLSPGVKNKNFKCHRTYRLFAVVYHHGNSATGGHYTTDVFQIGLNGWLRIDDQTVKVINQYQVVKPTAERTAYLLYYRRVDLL
# These are yes or no findings as the source states them, for the method shown. Binding seen in cells or lysates may run through a third protein. Some binding calls cover weakened binding; strength is not graded here. Tags and fused reporters may be left off the sequences shown.
# B1: Flag-NLRP7 (NACHT, LRR and PYD domains-containing protein 7) (protein, UniProt Q8WX94 1-980)
# chain: MTSPQLEWTLQTLLEQLNEDELKSFKSLLWAFPLEDVLQKTPWSEVEEADGKKLAEILVNTSSENWIRNATVNILEEMNLTELCKMAKAEMMEDGQVQEIDNPELGDAEEDSELAKPGEKEGWRNSMEKQSLVWKNTFWQGDIDNFHDDVTLRNQRFIPFLNPRTPRKLTPYTVVLHGPAGVGKTTLAKKCMLDWTDCNLSPTLRYAFYLSCKELSRMGPCSFAELISKDWPELQDDIPSILAQAQRILFVVDGLDELKVPPGALIQDICGDWEKKKPVPVLLGSLLKRKMLPRAALLVTTRPRALRDLQLLAQQPIYVRVEGFLEEDRRAYFLRHFGDEDQAMRAFELMRSNAALFQLGSAPAVCWIVCTTLKLQMEKGEDPVPTCLTRTGLFLRFLCSRFPQGAQLRGALRTLSLLAAQGLWAQMSVFHREDLERLGVQESDLRLFLDGDILRQDRVSKGCYSFIHLSFQQFLTALFYALEKEEGEDRDGHAWDIGDVQKLLSGEERLKNPDLIQVGHFLFGLANEKRAKELEATFGCRMSPDIKQELLQCKAHLHANKPLSVTDLKEVLGCLYESQEEELAKVVVAPFKEISIHLTNTSEVMHCSFSLKHCQDLQKLSLQVAKGVFLENYMDFELDIEFERCTYLTIPNWARQDLRSLRLWTDFCSLFSSNSNLKFLEVKQSFLSDSSVRILCDHVTRSTCHLQKVEIKNVTPDTAYRDFCLAFIGKKTLTHLTLAGHIEWERTMMLMLCDLLRNHKCNLQYLRLGGHCATPEQWAEFFYVLKANQSLKHLRLSANVLLDEGAMLLYKTMTRPKHFLQMLSLENCRLTEASCKDLAAVLVVSKKLTHLCLAKNPIGDTGVKFLCEGLSYPDCKLQTLVLQQCSITKLGCRYLSEALQEACSLTNLDLSINQIARGLWILCQALENPNCNLKHLRLKTYETNLEIKKLLEEVKEKNPKLTIDCNASGATAPPCCDFFC
# Biological target: ubiquitin-specific peptidase 10 (USP10) (human (endogenous in HT29)) (UniProt Q14694)
# Experiment: co-IP; whole-cell extracts (50 mM Tris-HCl pH 7.5, 150 mM NaCl, 5 mM EDTA, protease inhibitors) precipitated with antibody against USP10, 4 °C, protein A/G agarose; NLRP7 detected by western blot
binder,measurement,value
B1,binding,binds
